In paper PMC10177080:
No constants are given. Whether binding was seen depends on the method and setting. Binding seen in cells or lysates may run through a third protein. Some entries that bind do so weakly or less than the wild type.

Protein sequences, listed by entry. Tags and fused reporters are not part of them.
UniProt Q9QXS1: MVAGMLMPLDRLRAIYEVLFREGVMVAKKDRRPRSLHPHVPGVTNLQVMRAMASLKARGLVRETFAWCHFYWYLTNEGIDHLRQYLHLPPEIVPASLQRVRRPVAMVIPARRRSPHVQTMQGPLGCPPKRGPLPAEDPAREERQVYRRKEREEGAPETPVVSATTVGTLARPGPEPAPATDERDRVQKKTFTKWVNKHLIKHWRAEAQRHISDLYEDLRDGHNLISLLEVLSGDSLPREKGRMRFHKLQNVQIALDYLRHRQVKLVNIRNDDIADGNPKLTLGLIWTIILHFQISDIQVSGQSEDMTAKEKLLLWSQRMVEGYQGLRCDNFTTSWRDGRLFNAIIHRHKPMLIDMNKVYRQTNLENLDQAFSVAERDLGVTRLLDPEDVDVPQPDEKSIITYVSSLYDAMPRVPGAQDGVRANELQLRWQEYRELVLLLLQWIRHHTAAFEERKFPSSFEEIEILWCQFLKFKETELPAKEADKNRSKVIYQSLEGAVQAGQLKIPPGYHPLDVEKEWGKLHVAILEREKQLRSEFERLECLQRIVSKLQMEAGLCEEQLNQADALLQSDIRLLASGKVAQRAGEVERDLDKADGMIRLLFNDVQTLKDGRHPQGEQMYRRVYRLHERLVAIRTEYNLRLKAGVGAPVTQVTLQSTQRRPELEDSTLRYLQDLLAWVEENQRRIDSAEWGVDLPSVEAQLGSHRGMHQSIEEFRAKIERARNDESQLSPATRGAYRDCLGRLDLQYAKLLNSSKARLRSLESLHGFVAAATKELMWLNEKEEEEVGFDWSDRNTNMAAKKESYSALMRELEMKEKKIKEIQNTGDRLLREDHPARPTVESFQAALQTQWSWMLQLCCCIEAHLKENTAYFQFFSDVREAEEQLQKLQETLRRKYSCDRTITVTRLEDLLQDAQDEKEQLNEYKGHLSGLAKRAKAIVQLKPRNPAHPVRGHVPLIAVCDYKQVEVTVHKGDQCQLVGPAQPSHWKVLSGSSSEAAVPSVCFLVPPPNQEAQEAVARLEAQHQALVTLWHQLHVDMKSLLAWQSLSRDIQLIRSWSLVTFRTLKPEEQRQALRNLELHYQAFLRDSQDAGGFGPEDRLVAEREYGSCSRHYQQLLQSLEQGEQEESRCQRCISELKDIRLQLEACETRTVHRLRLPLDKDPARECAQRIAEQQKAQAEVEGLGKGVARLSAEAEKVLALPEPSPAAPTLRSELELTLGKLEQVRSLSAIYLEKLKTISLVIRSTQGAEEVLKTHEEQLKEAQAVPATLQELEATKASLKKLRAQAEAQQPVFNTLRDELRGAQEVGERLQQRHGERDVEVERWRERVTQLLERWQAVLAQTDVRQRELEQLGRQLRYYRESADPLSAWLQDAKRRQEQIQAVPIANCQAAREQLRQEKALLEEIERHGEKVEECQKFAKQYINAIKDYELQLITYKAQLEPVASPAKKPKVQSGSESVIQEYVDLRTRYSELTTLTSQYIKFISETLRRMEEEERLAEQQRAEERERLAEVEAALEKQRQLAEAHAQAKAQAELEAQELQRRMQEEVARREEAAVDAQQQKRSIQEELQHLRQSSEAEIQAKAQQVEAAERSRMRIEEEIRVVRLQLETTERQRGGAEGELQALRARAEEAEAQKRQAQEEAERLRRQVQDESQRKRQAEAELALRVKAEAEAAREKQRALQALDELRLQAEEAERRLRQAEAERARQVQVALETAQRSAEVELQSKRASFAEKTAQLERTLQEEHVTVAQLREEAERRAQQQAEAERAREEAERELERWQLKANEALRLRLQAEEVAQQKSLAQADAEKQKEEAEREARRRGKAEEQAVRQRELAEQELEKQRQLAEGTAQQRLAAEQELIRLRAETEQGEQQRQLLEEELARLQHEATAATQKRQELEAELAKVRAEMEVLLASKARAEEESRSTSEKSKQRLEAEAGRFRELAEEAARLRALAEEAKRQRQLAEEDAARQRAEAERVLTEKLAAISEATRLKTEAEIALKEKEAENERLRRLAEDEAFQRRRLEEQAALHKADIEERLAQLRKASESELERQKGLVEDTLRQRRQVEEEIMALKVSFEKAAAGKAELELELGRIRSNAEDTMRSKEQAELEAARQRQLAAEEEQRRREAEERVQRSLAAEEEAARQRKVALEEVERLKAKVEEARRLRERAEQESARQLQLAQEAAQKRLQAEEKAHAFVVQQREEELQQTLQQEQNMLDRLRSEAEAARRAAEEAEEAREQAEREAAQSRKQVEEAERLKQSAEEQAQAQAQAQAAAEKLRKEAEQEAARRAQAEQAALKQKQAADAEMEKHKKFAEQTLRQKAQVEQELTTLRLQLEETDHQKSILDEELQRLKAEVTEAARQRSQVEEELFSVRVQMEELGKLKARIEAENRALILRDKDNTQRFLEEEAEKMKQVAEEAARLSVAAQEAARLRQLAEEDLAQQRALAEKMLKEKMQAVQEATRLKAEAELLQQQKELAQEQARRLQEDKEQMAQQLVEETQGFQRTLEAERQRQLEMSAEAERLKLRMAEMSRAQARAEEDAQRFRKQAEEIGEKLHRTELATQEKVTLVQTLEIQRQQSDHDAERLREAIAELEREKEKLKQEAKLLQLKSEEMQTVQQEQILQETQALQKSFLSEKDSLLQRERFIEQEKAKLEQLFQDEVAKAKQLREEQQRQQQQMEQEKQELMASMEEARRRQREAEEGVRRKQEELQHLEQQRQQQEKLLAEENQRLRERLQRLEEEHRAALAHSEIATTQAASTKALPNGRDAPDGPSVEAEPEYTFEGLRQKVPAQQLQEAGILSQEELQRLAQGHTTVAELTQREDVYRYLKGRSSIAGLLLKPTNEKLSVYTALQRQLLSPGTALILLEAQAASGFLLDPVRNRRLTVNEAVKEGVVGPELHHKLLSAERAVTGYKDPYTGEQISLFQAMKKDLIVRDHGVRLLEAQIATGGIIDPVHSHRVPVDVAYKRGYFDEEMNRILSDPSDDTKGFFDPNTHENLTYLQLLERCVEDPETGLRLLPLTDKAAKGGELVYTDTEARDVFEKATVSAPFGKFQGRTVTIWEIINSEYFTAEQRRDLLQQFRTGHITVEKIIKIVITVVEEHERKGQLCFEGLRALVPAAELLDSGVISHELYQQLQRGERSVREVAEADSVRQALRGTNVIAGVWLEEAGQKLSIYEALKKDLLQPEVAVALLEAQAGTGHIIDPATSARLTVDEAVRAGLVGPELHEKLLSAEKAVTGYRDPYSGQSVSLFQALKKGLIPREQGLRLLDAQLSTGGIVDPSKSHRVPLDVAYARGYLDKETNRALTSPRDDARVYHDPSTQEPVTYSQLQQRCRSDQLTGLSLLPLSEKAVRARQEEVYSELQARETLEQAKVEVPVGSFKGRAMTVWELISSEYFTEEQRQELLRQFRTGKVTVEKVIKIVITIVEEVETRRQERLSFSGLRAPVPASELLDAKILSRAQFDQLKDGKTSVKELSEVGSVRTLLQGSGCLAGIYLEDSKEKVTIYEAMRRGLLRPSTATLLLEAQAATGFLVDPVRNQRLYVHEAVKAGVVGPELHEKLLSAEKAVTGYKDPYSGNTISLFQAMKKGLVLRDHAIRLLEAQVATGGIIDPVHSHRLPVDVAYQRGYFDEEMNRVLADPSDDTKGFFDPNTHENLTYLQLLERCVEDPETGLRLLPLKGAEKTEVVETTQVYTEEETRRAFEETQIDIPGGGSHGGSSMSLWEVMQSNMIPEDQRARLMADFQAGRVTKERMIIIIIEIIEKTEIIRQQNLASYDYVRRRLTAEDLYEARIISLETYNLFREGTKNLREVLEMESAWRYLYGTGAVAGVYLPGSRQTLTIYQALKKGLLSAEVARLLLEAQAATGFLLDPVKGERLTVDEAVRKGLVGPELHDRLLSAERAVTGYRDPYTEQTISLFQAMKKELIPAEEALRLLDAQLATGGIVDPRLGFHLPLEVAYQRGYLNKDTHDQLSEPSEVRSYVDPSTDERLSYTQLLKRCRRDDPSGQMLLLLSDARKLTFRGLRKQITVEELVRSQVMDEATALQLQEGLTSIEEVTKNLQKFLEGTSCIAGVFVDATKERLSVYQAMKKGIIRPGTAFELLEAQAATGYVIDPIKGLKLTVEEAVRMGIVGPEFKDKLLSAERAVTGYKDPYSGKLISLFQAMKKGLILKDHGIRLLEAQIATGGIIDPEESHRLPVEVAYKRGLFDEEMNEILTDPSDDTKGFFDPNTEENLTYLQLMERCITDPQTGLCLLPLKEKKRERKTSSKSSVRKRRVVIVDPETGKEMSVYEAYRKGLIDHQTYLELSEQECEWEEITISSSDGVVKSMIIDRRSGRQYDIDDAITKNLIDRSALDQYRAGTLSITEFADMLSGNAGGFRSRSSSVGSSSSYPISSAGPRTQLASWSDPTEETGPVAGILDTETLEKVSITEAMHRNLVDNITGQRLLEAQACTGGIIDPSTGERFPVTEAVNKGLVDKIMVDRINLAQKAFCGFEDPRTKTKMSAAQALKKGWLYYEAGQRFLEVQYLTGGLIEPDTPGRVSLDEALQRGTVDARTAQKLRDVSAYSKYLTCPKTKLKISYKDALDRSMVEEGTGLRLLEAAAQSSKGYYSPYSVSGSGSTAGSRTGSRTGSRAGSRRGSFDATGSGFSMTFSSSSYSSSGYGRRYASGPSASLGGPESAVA

Target: plectin, endogenous in myoblasts (mouse (endogenous in myoblasts)) (UniProt Q9QXS1)
Assay: co-IP; lysates of differentiated wild-type myoblasts (20 mM Tris-HCl pH 8.0, 1 mM EDTA, 200 mM NaCl, 0.5% Nonidet P-40); immunoprecipitation with pan-plectin antibodies (rabbit antiserum #9) and protein A/G sepharose beads; immunoblot

binding: binds
B1: synpo2, endogenous in myoblasts (protein, UniProt Q91YE8 1-1087)
chain: MGTGDFICISMTGGAPWGFRLQGGKEEQQPLQVAKIRSQSKASGSGLREGDEVVSINGNPCADLTYPEVIKLMEGITDSLHLLVKRPSSGTSETLDSESETTNHQHLTHEGPMESTTLQIQQATETQSEDFFLAPVQTKVPLTEDQSNAWGYAECPKEEQAPPMLGSQEGHLVEEVILRQKAEAGQPGHVVELQLSLSKERHQCTSGPIVTLQGNDKSTSPDPDWSSQLERTVHINSIPAPEKADTSLTSSTSSGRELRVIQGRDPGGAGLPQVEVILDCSDRLKAEECRLQTGRGCVASPVEGGRSEAPPSLVSFAVSSEGTEHGEDQRSGKDQSRPHKHRARHARLRRSESLSEKQVKEAKSKCKSIALLLTDAPNPNSKGVLMFKKRRRRARKYTLVSYGTGELEREEEEEEDQEAGDKDEISEVAFLGTSESEVDEELLSDVDDNTQVVNFDWDSGLVDIEKRLNRGDKMEMLPDTTGKGALMFAKRRERMEQFTAQNEEEKTGGMAGGGPDALQTDGLRTMTSYQRKEESVRMQSSVSESSFQMGRSLASVPQQNGFSGVSETAGAQRMFPMNRTAKPFLGSMNQPAAPFSPTRSVTSPISDFPAPPPYSAVSPPPEAFSRGVSSPVAGPAQPPPWPQPAPWSQPAFYDSSEQIASRDERIAVPAKRTGILQEAKRRGTTKPMFTFKETKVSPNPELLSLLQNAEGKRGTGGDSGPEEDYLSLGAEACNFMQSSAKQKTPPPVAPKPAVKSPSSSQPVAPVSPVWSPGVAPAQRPAFSTSNPPNPPQVTAVSSIKIAQPAAPPARPASALNLAGPFKGPQAVVVSHNYTPKPSAPTPLVNAAPAGAGGPSNELPGMSGKGAQLFAKRQSRMEKYVVDSDTVQAHTVRAQSPTPSLPASWKYSSNVRAPPPVAYNPIHSPSYPLAAIKSQPPGAQASKTSKKKGKKPLNTLDVMKHQPYQLNASLFTFQPPDSKDGLPQKSTVKVSSAPAMKQALPPRQANVGSPTNAQASSVYSVPAYTSQPNFFAAEATSPVSASPVPVSVPTSPKQESTSTSYFVAPRPKFSAKKSGVTVQVWKPSVVEE
